Earlier results in patent publication US20040092527A1, “Itraconazole bioavailability” (priority 2000, published 2004).

Conditions: in water and in acidic, e.g. aqueous, diluted hydrochloric acidic solvent (conditions as in the stomach)

solubility: insoluble
Compound: CCC(C)n1ncn(-c2ccc(N3CCN(c4ccc(OCC5COC(Cn6cncn6)(c6ccc(Cl)cc6Cl)O5)cc4)CC3)cc2)c1=O (stereo not shown) [itraconazole]
